# The other results are listed elsewhere or left out.
# Target: T1, OsSMF1 (Oryza sativa, UniProt Q6ZLB0 1-436)
# T1 sequence: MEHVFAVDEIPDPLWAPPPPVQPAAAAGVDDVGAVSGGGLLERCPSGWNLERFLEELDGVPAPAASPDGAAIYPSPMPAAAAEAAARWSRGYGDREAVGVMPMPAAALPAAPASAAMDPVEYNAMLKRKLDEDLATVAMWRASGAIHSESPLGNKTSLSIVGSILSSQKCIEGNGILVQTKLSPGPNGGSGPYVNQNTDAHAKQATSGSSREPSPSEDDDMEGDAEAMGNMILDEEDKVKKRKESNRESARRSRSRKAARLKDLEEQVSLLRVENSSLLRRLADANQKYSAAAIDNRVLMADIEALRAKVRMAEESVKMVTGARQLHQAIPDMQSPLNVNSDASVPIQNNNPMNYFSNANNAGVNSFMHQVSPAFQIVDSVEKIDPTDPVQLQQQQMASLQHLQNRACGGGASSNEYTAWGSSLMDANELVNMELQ
# Experiment: protein-binding microarray (RPBM); PBS, 2% BSA, 51.3 ng/ul salmon testes DNA, 50 uM zinc acetate, 200 nM TF, 25 C, 1 h; high values mean tight binding
# Settings: protein: recombinant; tags: N-terminal polyhistidine and DsRed monomer fusion (pET32a); chain copies: 2; label: CyDye5-dUTP incorporated in the synthesized complementary strand; 3' TTTTT single-stranded linker to array surface; dsDNA, one strand shown
# In short: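 For the binding signal, per-feature fluorescence intensity was read in arbitrary units on an Axon 4000B scanner. Before scanning, a 2% BSA-blocked custom Agilent array made double-stranded with Cy5-dUTP was washed after 1 h at 25 °C with 200 nM protein and 50 µM zinc acetate. The proteins were Ni–NTA-purified transcription factors with N-terminal polyhistidine and DsRed fusions, expressed in E. coli BL21-CodonPlus.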
row,Sequence,binding signal
1,TCAATTGTTACTTTAGATGGCTTAACTGTTATATTCTTTACGGAGTCACCTAGTGCAG,27400 fluorescence intensity (a.u.)
2,CATCGAGAGGCTCCCGAGCATGGCCGAGATCGCCGAGGAGCGGAGTCACCTAGTGCAG,3500 fluorescence intensity (a.u.)
3,ACTTCGCTAGGGTGTGCGTGACTTTGTCAGTGAGGTCGCCCGGAGTCACCTAGTGCAG,3730 fluorescence intensity (a.u.)
4,CTCCGCCCATTTCTCCTCTCCACCTGCGATCCATCCGCGCCGGAGTCACCTAGTGCAG,3180 fluorescence intensity (a.u.)
5,GGGACCATATATCAATTATGCTGACAAGACAATCCATCTGCGGAGTCACCTAGTGCAG,3160 fluorescence intensity (a.u.)
6,CATGTGCACTGTGATTCTCTCAGTTTTGTATCATCAAGATCGGAGTCACCTAGTGCAG,3420 fluorescence intensity (a.u.)
7,AAACAAGACGTGGCGACTGGCCGACCTCCCTCGTGGACACCGGAGTCACCTAGTGCAG,5530 fluorescence intensity (a.u.)
8,AGGAGAGGTCGATCCACCAGAGCATCGTCCCGACGTGGGACGGAGTCACCTAGTGCAG,3730 fluorescence intensity (a.u.)
9,GAGTCCCACCAGTATCCACGTTGGATCTGTTCCTGTTGTGCGGAGTCACCTAGTGCAG,6800 fluorescence intensity (a.u.)
10,ATGGTGGTGGATCTGTGGTTGTATTGACTTTACCCATCAACGGAGTCACCTAGTGCAG,3770 fluorescence intensity (a.u.)
11,ATAGTCTTCACCAATCTCCTTGGGACACGTTTGTGTCGGTCGGAGTCACCTAGTGCAG,3890 fluorescence intensity (a.u.)
12,ATATGCATGGTTCTATTTTGTTTACATGTAGTATAGGTCACGGAGTCACCTAGTGCAG,3320 fluorescence intensity (a.u.)
13,GGCATGCTTTTATCCAAAAGGCTACAATCAAGAGTTGCTTCGGAGTCACCTAGTGCAG,15900 fluorescence intensity (a.u.)
14,AATACAGGAAAACATGGATCAGATGGCCGTGCGATTACACCGGAGTCACCTAGTGCAG,3150 fluorescence intensity (a.u.)
15,GTAGGAGACGGTGACGTCAACCGGCTTGTAGGGAGCCTTGCGGAGTCACCTAGTGCAG,6880 fluorescence intensity (a.u.)
16,TTGAGATACCACATCTCGGCCAGCTTCGTCATCTTCCCGCCGGAGTCACCTAGTGCAG,3920 fluorescence intensity (a.u.)
17,CGACCAAACAGTCACACGGGCCACCGGACCAGCCGTCACCCGGAGTCACCTAGTGCAG,3470 fluorescence intensity (a.u.)
18,GCAAGCAACTAAGCAAGACGACACGGTCTCTGTCCTACCACGGAGTCACCTAGTGCAG,3990 fluorescence intensity (a.u.)
19,AAGCATATAAAGCATATGGGTTCAGTATGTCACCACAACCCGGAGTCACCTAGTGCAG,3350 fluorescence intensity (a.u.)
20,TGGTGACGACGTGTCGACGCCTTCAAGTCACTGAGTCATGCGGAGTCACCTAGTGCAG,29000 fluorescence intensity (a.u.)
21,CCAACGGCCCACCCTATAGCTAGCGCCACCACCGACACCACGGAGTCACCTAGTGCAG,3210 fluorescence intensity (a.u.)

# Some of the entries so far, as tab-separated lines:
row	Sequence	binding signal
7	AAACAAGACGTGGCGACTGGCCGACCTCCCTCGTGGACACCGGAGTCACCTAGTGCAG	5530 fluorescence intensity (a.u.)
8	AGGAGAGGTCGATCCACCAGAGCATCGTCCCGACGTGGGACGGAGTCACCTAGTGCAG	3730 fluorescence intensity (a.u.)
9	GAGTCCCACCAGTATCCACGTTGGATCTGTTCCTGTTGTGCGGAGTCACCTAGTGCAG	6800 fluorescence intensity (a.u.)
10	ATGGTGGTGGATCTGTGGTTGTATTGACTTTACCCATCAACGGAGTCACCTAGTGCAG	3770 fluorescence intensity (a.u.)
11	ATAGTCTTCACCAATCTCCTTGGGACACGTTTGTGTCGGTCGGAGTCACCTAGTGCAG	3890 fluorescence intensity (a.u.)
12	ATATGCATGGTTCTATTTTGTTTACATGTAGTATAGGTCACGGAGTCACCTAGTGCAG	3320 fluorescence intensity (a.u.)
13	GGCATGCTTTTATCCAAAAGGCTACAATCAAGAGTTGCTTCGGAGTCACCTAGTGCAG	15900 fluorescence intensity (a.u.)
14	AATACAGGAAAACATGGATCAGATGGCCGTGCGATTACACCGGAGTCACCTAGTGCAG	3150 fluorescence intensity (a.u.)
15	GTAGGAGACGGTGACGTCAACCGGCTTGTAGGGAGCCTTGCGGAGTCACCTAGTGCAG	6880 fluorescence intensity (a.u.)
16	TTGAGATACCACATCTCGGCCAGCTTCGTCATCTTCCCGCCGGAGTCACCTAGTGCAG	3920 fluorescence intensity (a.u.)
17	CGACCAAACAGTCACACGGGCCACCGGACCAGCCGTCACCCGGAGTCACCTAGTGCAG	3470 fluorescence intensity (a.u.)

# (cont.)

row,Sequence,binding signal
1,CGATAATTAGAAGTTCTCCCAAATAGGCCCATTGTTTCACCGGAGTCACCTAGTGCAG,3170 fluorescence intensity (a.u.)
2,AATAAGACGAAGAGTCACGTTGTATCACAAGGGAGTATCTCGGAGTCACCTAGTGCAG,3210 fluorescence intensity (a.u.)
3,CCACCGAAGCCGCCGCCACGTCATGCCCCGGCTGCGGTTTCGGAGTCACCTAGTGCAG,16400 fluorescence intensity (a.u.)
4,CGTGTATACCTTATTACCGCCGGGACCAACTGAAAGAAGTCGGAGTCACCTAGTGCAG,34500 fluorescence intensity (a.u.)
5,GCGTCGAGGTTGTCCGCCACCACGTGGCTGAATTGGAACCCGGAGTCACCTAGTGCAG,9340 fluorescence intensity (a.u.)
6,TGTGTGTATAACAGGTGAGACCATATACATGTGTATATAACGGAGTCACCTAGTGCAG,3160 fluorescence intensity (a.u.)
7,AACACTTGCGCATCCACCCACCCCAACCGACCAAAGCTCGCGGAGTCACCTAGTGCAG,3490 fluorescence intensity (a.u.)
8,TAGGCCCCATCCATCAATCCATCACGCTGGGCCGTCTGTGCGGAGTCACCTAGTGCAG,3320 fluorescence intensity (a.u.)
9,GATTTGCCACCTAAGAACTAGATGAGGCAATAAATATACCCGGAGTCACCTAGTGCAG,4480 fluorescence intensity (a.u.)
10,ATGACGAGGGTGGATCCGTGGATGTGCGTTGGCTGCCTATCGGAGTCACCTAGTGCAG,4096 fluorescence intensity (a.u.)
11,ACAAATGGATCCACCCATTAGATGACGTGGTTCTTTCCCTCGGAGTCACCTAGTGCAG,14500 fluorescence intensity (a.u.)
12,CCCGTTCCCCTTCCCCACTCCGTCCCGGCAGCTACCTCCGCGGAGTCACCTAGTGCAG,8040 fluorescence intensity (a.u.)
13,AATCTAGACATCTATCTAATGTGACACCTCACGGGTGAAGCGGAGTCACCTAGTGCAG,4380 fluorescence intensity (a.u.)
14,AAAATCCGATTAGTTAATTAGTTAGTTAAGTGATGTGGTACGGAGTCACCTAGTGCAG,3630 fluorescence intensity (a.u.)
15,TAGTTTATAACATGTGGATCCTCCATGTGTCTATGATATACGGAGTCACCTAGTGCAG,4020 fluorescence intensity (a.u.)
16,CAAGTGATAATCTATACCTAGTTGATGATGCCAATATCATCGGAGTCACCTAGTGCAG,4340 fluorescence intensity (a.u.)
17,GCCCTCCTCCTTCACTCCCGTGCGTCGTCACTGCCGCAACCGGAGTCACCTAGTGCAG,3370 fluorescence intensity (a.u.)
18,GCGGAAGCGGGAAACAATCTTACCGCCCGCGTCATCGCGCCGGAGTCACCTAGTGCAG,3300 fluorescence intensity (a.u.)
19,GCAGCGACGCGGCGGAGTGGCAGGGCCCGTGGTCAGATGACGGAGTCACCTAGTGCAG,4360 fluorescence intensity (a.u.)
20,TAGCCGCTTCGGCAGCTTTCTTGACTACACGTACTCGGTTCGGAGTCACCTAGTGCAG,3360 fluorescence intensity (a.u.)
21,GTTGGAACAATTAATGTGCTGCAGGCAATAACAATCCAGTCGGAGTCACCTAGTGCAG,48700 fluorescence intensity (a.u.)
